The list shows a part of the results. Values are raw readings; no control value is given beside them.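 In the initial screen, polymyxin B was used at a concentration that permeabilizes Salmonella's outer membrane but not its inner membrane. Maximum growth was set by DMSO wells with or without polymyxin B. Since plates varied, data were ranked per plate, and compounds giving the lowest OD600 advanced as hits.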
Tested on: Salmonella enterica serovar Typhimurium SL1344
Test: bacterial growth OD600 after 18 h with compound and polymyxin B; higher = more bacterial growth (less inhibition)
Settings: 50 µM, Mueller-Hinton broth

Row | SMILES | bacterial growth OD600 (polymyxin B 0.75 µg/mL) | bacterial growth OD600 (polymyxin B 1 µg/mL)
1 | COCC1CCCCN1C(=O)c1csc2nc(-c3ccc(Cl)cc3)cn12 (stereo not given) | 0.511 | 
2 | CC(C)C(CO)Nc1ccc(-c2nc(Cc3ccccc3)no2)cn1 (stereo not given) |  | 0.587
3 | COCC1CCCN(C(=O)c2cc(Cn3cnc4cc(C)c(C)cc43)[nH]n2)C1 (stereo not given) |  | 0.933
4 | C=CC[C@@H]1CC=C[C@@H](C)N1C(=O)CC1(c2ccccc2)CC(=O)N(CCCOc2cccnc2)C1=O (stereo not given in full) | 0 | 
5 | FC(F)(F)c1cccc(N2CCN(C3CCCN(Cc4ccco4)C3)CC2)c1 (stereo not given) |  | 0.787
6 | Cc1ccc2c(c1)CN(CC1CC1)CC(c1ccsc1)O2 (stereo not given) | 0.739 | 
7 | CN(C)CCC1CN(c2ccc3ccccc3n2)CCO1 (stereo not given) |  | 0.979
8 | CC[C@H](C)[C@H](NC(=O)C1CC(Cc2ccc(F)cc2)=NO1)C(=O)OC (stereo not given in full) | 0.788 | 
9 | O=C(NCCC1=CCCCC1)C1CC12CCN(C(=O)c1cn3ccccc3n1)CC2 (stereo not given) | 0.98 | 
10 | COCCC(=O)N1CCCC1C(=O)Nc1ccc(-c2cc3ccccc3[nH]2)cc1 (stereo not given) | 0.722 | 
11 | CN(C(=O)c1ccn(C)n1)C(Cc1ccccc1)C1CCN(Cc2ccc(N3CCCC3)cc2)CC1 (stereo not given) | 0.794 | 
12 | Cc1cnccc1CNC(=O)CC(c1cccc(O)c1)c1cccc(Cl)c1 (stereo not given) |  | 0.723
13 | CN(C)C(=O)c1ccc(N2CCC(NCCc3ccccc3C(F)(F)F)CC2)cc1 | 0.823 | 
14 | C=C(C)CN(C)C(=O)Cc1c2c(n(Cc3ccccc3)c1C)CCCC2=O |  | 1.11
15 | COC(=O)CNC(=O)c1coc(COc2cccc(F)c2F)n1 | 0.864 | 
16 | CCn1cc(C(=O)NC2CCCN(CC3CCCCC3)C2)cn1 (stereo not given) |  | 0.994
17 | COc1cc(CN2CCN(Cc3ccccc3C)CC2CCO)cc(OC)c1 (stereo not given) |  | 0.872
18 | Cc1ccc(OCc2cc(C(=O)N3CCC(Cc4ccccc4F)CC3)no2)cn1 |  | 0.686
19 | CCOC(=O)C1(CCOc2ccccc2)CCN(C(=O)c2ccc3c(c2)OCCO3)CC1 |  | 0.518
20 | O=C(NCc1ccccn1)C1CCN(C2CCN(Cc3ccccc3)CC2)CC1 |  | 0.91

Complete entries from above.
C=C(C)CN(C)C(=O)Cc1c2c(n(Cc3ccccc3)c1C)CCCC2=O in the list: bacterial growth OD600 (polymyxin B 1 µg/mL): 1.11
Cc1ccc2c(c1)CN(CC1CC1)CC(c1ccsc1)O2 (stereo not given) in the list: bacterial growth OD600 (polymyxin B 0.75 µg/mL): 0.739
